Substitutions are numbered along the chain they refer to. Results are given in words; binding and its absence hold for the method and conditions named. Some entries that bind do so weakly or less than the wild type. Values belong to the binder of their own block, whether it stands above or below them.
How the values were obtained:
[1] = biological target: recombinant human GPC3 (rhGPC3), purchased from Andy Biosciences (Shanghai) Co., Ltd. (human) (UniProt P51654); assay: ELISA, 100 ng coated antigen per well, 100 ng antibody per well, HRP rabbit anti-human Fc detection
[2] = biological target: recombinant human GPC3 (rhGPC3), purchased from Andy Biosciences (Shanghai) Co., Ltd. (human) (UniProt P51654); assay: ELISA, 100 ng/well coated antigen, 100 ng antibody per well, HRP rabbit anti-human Fc detection, OD450
[3] = biological target: recombinant human GPC3 (rhGPC3), purchased from Andy Biosciences (Shanghai) Co., Ltd. (human) (UniProt P51654); assay: ELISA on recombinant human GPC family members (FIG. 5)
[4] = biological target: human GPC3 recombinant protein (purchased from Shanghai Rui Jin Biotechnology Co., Ltd.) (human) (UniProt P51654); assay: SPR (Biacore T200), antibody captured on anti-human IgG (Fc) chip, GPC3 injected at 5, 10, 20, 40, 80 nM, single-cycle kinetics
[5] = biological target: human GPC3 recombinant protein (purchased from Shanghai Rui Jin Biotechnology Co., Ltd.) (human) (UniProt P51654); assay: SPR, Biacore T200 (summary of Table 1)
[6] = biological target: human GPC3 recombinant protein (purchased from Shanghai Rui Jin Biotechnology Co., Ltd.) (human) (UniProt P51654); assay: SPR (Biacore T200), human GPC3 amine-coupled to the chip, antibody injected, multi-cycle kinetics, reference subtracted
[7] = biological target: human GPC3 recombinant protein (purchased from Shanghai Rui Jin Biotechnology Co., Ltd.) (human) (UniProt P51654); assay: SPR, Biacore T200 (summary of Table 2)
[8] = biological target: human GPC3 protein GPC3(H) (human) (UniProt P51654); assay: ELISA screen of hybridoma clones on coated GPC3(H)

Chains of the proteins cited; added tags and fusions are not shown. Residues count along the entry.
UniProt P51654, residues 25-559: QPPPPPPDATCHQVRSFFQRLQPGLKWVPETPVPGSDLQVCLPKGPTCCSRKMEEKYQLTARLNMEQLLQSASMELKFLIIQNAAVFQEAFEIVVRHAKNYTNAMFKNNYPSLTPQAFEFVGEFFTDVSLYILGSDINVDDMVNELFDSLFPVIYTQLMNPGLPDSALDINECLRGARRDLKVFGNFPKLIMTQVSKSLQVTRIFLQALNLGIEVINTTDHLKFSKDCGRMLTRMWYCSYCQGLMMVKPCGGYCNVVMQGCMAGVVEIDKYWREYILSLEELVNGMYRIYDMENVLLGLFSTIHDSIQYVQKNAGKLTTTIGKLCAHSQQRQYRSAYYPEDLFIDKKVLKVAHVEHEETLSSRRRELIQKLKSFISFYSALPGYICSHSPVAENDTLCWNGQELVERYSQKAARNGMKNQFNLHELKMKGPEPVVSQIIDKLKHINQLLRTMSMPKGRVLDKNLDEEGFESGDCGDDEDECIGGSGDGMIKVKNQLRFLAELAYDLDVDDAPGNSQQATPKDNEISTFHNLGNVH

binding [1]: binds | binding [2]: binds | binding [3]: binds | binding [4]: binds | binding [5]: binds
B1: P7D4 mutant single chain antibody am20 (scFv, not shown: a dimerising Fc or GST)
chain: QVQLQESGGGLVQPGRSLRLSCAASGFTFSTYAMNWVRQAPGKGLEWVSAISMSGESTYYADSVKGRFTISRDNSKNTLYLQMNSLRAEDTAVYYCAKDRRGSHADAFDVWGQGTLVTVSSGGGGSGGGGSGGGGSQSALTQPPSASGSPGQSVTISCTGTSSDVGGYNYVSWYQQYPGKAPKLLIYGNSNRPSGVPDRFSGSKSGTSASLAITGLQAEDGADYYCQSYDSSLRVVFGGGTKVTVLG

binding [6]: binds | binding [7]: binds
B2: humanized antibody Y035 (antibody, V domains shown)
VH: EVQLVQSGAEVKKPGASVKVSCKASGYTFSDYEMHWVRQAPGQGLEWMGAIHPGSGDTAYNQRFKGRVTITADKSTSTAYMELSSLRSEDTAVYYCARFYSYAYWGQGTLVTVSA
VL: DIVMTQTPLSLPVTPGEPASISCRSSQSLVHSNGNTYLQWYLQKPGQSPQLLIYKVSNRFSGVPDRFSGSGSGTDFTLKISRVEAEDVGVYYCSQSIYVPYTFGQGTKLEIKR

binding [8]: binds
B3: parental murine monoclonal antibody 5A5 (antibody, V domains shown)
VH: QVQLQQSGTELVRPGASVKLSCKALGYTFTDYEMHWVKQTPVHGLEWIGAIHPGSGDTAYNQRFKGKATLTADKSSSTAYMEYSSLTSEDSAVYYCTRFYSYAYWGQGTLVTVSA
VL: B2 VL with I2V, T14S, P15L, E17D, P18Q, Q50K, S70R, V88L, Y92F, Q105G

Reference: patent US20190046659A1
